Chains of the proteins cited; added tags and fusions are not shown. Residues count along the entry.
UniProt O95365, 370-500: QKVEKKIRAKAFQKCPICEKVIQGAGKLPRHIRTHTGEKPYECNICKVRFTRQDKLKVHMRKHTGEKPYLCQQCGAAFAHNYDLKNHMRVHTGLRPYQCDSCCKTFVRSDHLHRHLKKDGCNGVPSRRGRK

According to publication PMC9344028:

Target: FLAG-ZBTB7A ZF1-4 (UniProt O95365)
Test: EMSA
Conditions: poly dIdC; EMSA: 10 mM HEPES pH 7.8, 50 mM KCl, 5 mM MgCl2, 1 mM EDTA, 5% glycerol, 1 mM DTT, 0.1 mg/mL BSA, 0.05 mg/mL poly dIdC, 4 C; protein in an extract; residues 370-500; protein details: FLAG; label: 5'-32P on forward strand

TGGGGGCCCCTTCCCCACACTAT (double strand) [-200γ WT EMSA probe]
binding result: binds

Construct, isoform or probe ends are uncertain for at least one entry. At least one result comes from cells or an extract, where the contact may be indirect.
